Earlier results in patent US12239654B2, “Compounds and methods for treating neurological and cardiovascular conditions” (Astrocyte Pharmaceuticals, Inc., priority 2016, dated 2025).
At least one read-out could not be matched to a standard name with certainty.

Conditions: Tosh, D. K. et al. Purinergic Signalling (2015) 11:371-387; cited from earlier work

For `CNC(=O)[C@@]12C[C@@H]1[C@@H](n1cnc3c(NCc4cccc(Cl)c4)nc(C#Cc4ccc(F)c(F)c4)nc31)[C@H](O)[C@@H]2O` [MRS5698], the “protein binding in mouse plasma and tissue reported in the literature” value is listed as 99.88%.
